PubChem BioAssay AID2685 (National Center for Advancing Translational Sciences (NCATS), 2010)
The other results are listed elsewhere or left out. Shown are side measurements of this screen, not its main read-out; they come without a call. Compounds called inactive in the main read-out are mostly missing here. The note in brackets gives the kind of curve behind each potency; many fits are weak.

Assay: qHTS Assay for Lipid Storage Modulators in Drosophila S3 Cells;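 as to cell number change: cells counted by Cell Tracker Red CMTPX staining in the red channel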
Details: BODIPY lipid droplet fluorescence, 18-24 h; for cell number change: measured here: cell count max response, cells fed with added oleic acid
Outline: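 Laser-scanning cytometry quantifies lipid droplet accumulation (500–530 nm total intensity; droplet/cell object ratio) in oleic acid-fed (400 uM added) Drosophila S3 cells treated with a concentration series. 20 uM Triacsin C defined 100% inhibition.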

[1] = measured here: cell number channel AC50, cells fed with added oleic acid
[2] = measured here: lipid fluorescence (Fed channel) AC50, cells fed with added oleic acid

Compound	cell number change [%]	AC50 [1]	AC50 [2]
COC(=O)c1ccc(CSc2nc3sc4c(c3c(=O)n2C)CCCC4)o1	2.54	–	–
CCOC(=O)C1=C(C)N=c2s/c(=C\c3ccc(OC(C)=O)cc3)c(=O)n2C1/C=C/c1ccccc1 (stereo unspecified)	27.2	2910 nM [rising, single point]	11600 nM [rising, partial curve, poor fit]
CCCCCOc1ccc(C2NC(=O)NC2=O)cc1 (stereo unspecified)	-24.9	2910 nM [falling, full curve, poor fit]	3660 nM [falling, single point]
CCc1ccc(NC(=O)N(Cc2ccco2)C(C)c2cccs2)cc1 (stereo unspecified)	-0.323	–	731 nM [rising, single point]
COc1cc(CC(=O)OCC(=O)NCCc2ccc(S(N)(=O)=O)cc2)cc(OC)c1OC	-36.7	184 nM [falling, full curve, poor fit]	2310 nM [falling, full curve, poor fit]
CN(C)S(=O)(=O)NCc1ccc2c(c1)OCO2	-143	29100 nM [falling, single point]	–
c1ccc(-c2nnsc2Sc2ccccn2)cc1	62.8	–	–
N#CC(C#N)=c1ccc2c(c1)N1C(c3ccccc3)=CC(c3ccccc3)C3CCCCC31N=2 (stereo unspecified)	-13.5	–	517 nM [falling, full curve]
CC1=C(C(=O)OCc2ccccc2)C(c2cccc(F)c2)NC(=O)N1 (stereo unspecified)	-9.09	–	–
COC(=O)N/N=C/c1ccccc1Cl	-25	–	–
CCN1CCN(C2=C(NS(=O)(=O)c3ccc(NC(C)=O)cc3)C(=O)c3ccccc3C2=O)CC1	-6.6	–	–
COc1ccc(Cl)cc1NC(=O)CN(C)S(=O)(=O)c1cccs1	-25.4	–	1300 nM [rising, partial curve, poor fit]
Cc1ccc(OCC(=O)NCC(=O)Nc2ccc(F)cc2)c([N+](=O)[O-])n1	-16.5	–	–
Cc1cc(=O)[nH]c(SCC(=O)Nc2cc(S(=O)(=O)N3CCCC3)ccc2Cl)n1	19.1	4110 nM [rising, single point]	–
CC(=O)c1cccc(OCC(=O)N(Cc2ccco2)c2c(N)n(Cc3ccccc3)c(=O)[nH]c2=O)c1	-7.39	–	29100 nM [falling, partial curve, poor fit]
Cc1noc(C)c1C(=O)OC(C)C(=O)Nc1ccc(C(N)=O)cc1 (stereo unspecified)	14.1	6510 nM [falling, single point]	–
O=C(COC(=O)/C=C/c1ccc(F)cc1)NCc1cccs1	1.41	–	–
CCN1CCN(c2ccc(NC(=O)c3cccc(OCc4ccccc4)c3)cc2)CC1	53.8	7310 nM [rising, partial curve, poor fit]	–
CCc1cc(CNC(=O)c2ccc(OC3CCN(CCc4ccccc4)CC3)cc2)on1	11	–	–
CCOC(=O)c1c(C)nc2c(c1C)/C(=N/O)CC(C)(C)C2	37.9	–	7310 nM [rising, partial curve, poor fit]

Compound	cell number change [%]	AC50 [1]	AC50 [2]
CCOC(=O)c1cc(C#N)c(N2CCN(C)CC2)nc1-c1ccccc1	2.63	130 nM [falling, single point]	103 nM [falling, single point]
CCN1CCN(CC(=O)Nc2cc(F)ccc2C)CC1	-40.4	1300 nM [falling, full curve]	4110 nM [falling, full curve]
COc1ccccc1C(=O)Nc1ncc2c(n1)CC(c1ccco1)CC2=O (stereo unspecified)	0.388	–	2310 nM [rising, partial curve]
COCCN(CCOC)C(=S)Nc1ccccc1	-13.6	5170 nM [falling, single point]	2060 nM [falling, partial curve, poor fit]
COC(=O)N1CCc2c(sc(NC(=O)C3COc4ccccc4O3)c2C(N)=O)C1 (stereo unspecified)	-78.5	20600 nM [falling, partial curve]	–
NC1=NC(=O)/C(=C/c2ccccc2OS(=O)(=O)c2ccccc2)S1	2.89	–	18400 nM [rising, single point]
CCOc1ccc(S(=O)(=O)N2CCCC(C(=O)NCc3cccnc3)C2)cc1Cl (stereo unspecified)	-1.32	–	398 nM [falling, single point]
CC1CCN(CC(=O)NNC(=O)c2cccc(Br)c2)CC1	35.9	9200 nM [rising, partial curve, poor fit]	–
CC(C)(C)c1ccc(O)c(N)c1	4.38	–	184 nM [falling, full curve, poor fit]
O=c1[nH]c(CN2CCCCC2)nc2c1C1(CCCCC1)Cc1ccccc1-2	-34	18400 nM [falling, single point]	651 nM [falling, single point]
C/C(CC1CC(C)(C)OC1=O)=N\NC(N)=S (stereo unspecified)	-18.5	461 nM [falling, partial curve, poor fit]	32.6 nM [falling, full curve, poor fit]
COc1ccccc1NS(=O)(=O)c1cc(NC(=O)CNC(=O)c2ccc(C)s2)ccc1Cl	-50	5.8 nM [falling, full curve, poor fit]	16400 nM [rising, single point]
Cc1nc(Nc2ccc3c(c2)OCCO3)c2c(C)c(C)sc2n1	-4.64	–	–
O=C(c1cccc(-c2ccc(O)cc2)c1)N1CCN(c2ccc(F)cc2)CC1	12.8	–	116 nM [rising, single point]
CCn1c(CN2CCN(Cc3ccc(C)cc3)C(CCO)C2)nc2ccccc21 (stereo unspecified)	19.1	–	–
CN1CCN(C(=O)c2cnn(-c3ccccc3)c2NC(=O)c2ccccc2Cl)CC1	0.867	–	–
COc1cccc(CNC(=O)CCNC(=O)c2ccco2)c1	-16.5	–	–
O=C(OCC(=O)N1CCN(C(=O)c2ccco2)CC1)c1cn(-c2ccccc2)nc1-c1ccccc1	6.65	920 nM [rising, full curve, poor fit]	–
Cc1c(C(=O)Nc2ccc3c(c2)OCCO3)cnn1C	3.04	–	–
FC(F)(F)c1cc(C(F)(F)F)c2ccc(N/N=C/c3ccccc3)nc2n1	-15.3	–	20600 nM [falling, partial curve, poor fit]

Looked up by compound from the list above:
Compound	cell number change [%]	AC50 [1]	AC50 [2]
O=C(OCC(=O)N1CCN(C(=O)c2ccco2)CC1)c1cn(-c2ccccc2)nc1-c1ccccc1	6.65	920 nM [rising, full curve, poor fit]	–
COCCN(CCOC)C(=S)Nc1ccccc1	-13.6	5170 nM [falling, single point]	2060 nM [falling, partial curve, poor fit]
